Article doi:10.1101/2023.01.29.526107
No constants are given. Whether binding was seen depends on the method and setting. In cells and extracts the contact can be indirect. Some results given as binding are weak or reduced against the parent protein; the word gives no strength.

By UniProt entry, the sequences of proteins in these tests, tags left out. Where a name states a change or a piece, a line headed by the entry shows the natural chain unless it says otherwise. Residues count along the entry.
UniProt P08069, 31-1367: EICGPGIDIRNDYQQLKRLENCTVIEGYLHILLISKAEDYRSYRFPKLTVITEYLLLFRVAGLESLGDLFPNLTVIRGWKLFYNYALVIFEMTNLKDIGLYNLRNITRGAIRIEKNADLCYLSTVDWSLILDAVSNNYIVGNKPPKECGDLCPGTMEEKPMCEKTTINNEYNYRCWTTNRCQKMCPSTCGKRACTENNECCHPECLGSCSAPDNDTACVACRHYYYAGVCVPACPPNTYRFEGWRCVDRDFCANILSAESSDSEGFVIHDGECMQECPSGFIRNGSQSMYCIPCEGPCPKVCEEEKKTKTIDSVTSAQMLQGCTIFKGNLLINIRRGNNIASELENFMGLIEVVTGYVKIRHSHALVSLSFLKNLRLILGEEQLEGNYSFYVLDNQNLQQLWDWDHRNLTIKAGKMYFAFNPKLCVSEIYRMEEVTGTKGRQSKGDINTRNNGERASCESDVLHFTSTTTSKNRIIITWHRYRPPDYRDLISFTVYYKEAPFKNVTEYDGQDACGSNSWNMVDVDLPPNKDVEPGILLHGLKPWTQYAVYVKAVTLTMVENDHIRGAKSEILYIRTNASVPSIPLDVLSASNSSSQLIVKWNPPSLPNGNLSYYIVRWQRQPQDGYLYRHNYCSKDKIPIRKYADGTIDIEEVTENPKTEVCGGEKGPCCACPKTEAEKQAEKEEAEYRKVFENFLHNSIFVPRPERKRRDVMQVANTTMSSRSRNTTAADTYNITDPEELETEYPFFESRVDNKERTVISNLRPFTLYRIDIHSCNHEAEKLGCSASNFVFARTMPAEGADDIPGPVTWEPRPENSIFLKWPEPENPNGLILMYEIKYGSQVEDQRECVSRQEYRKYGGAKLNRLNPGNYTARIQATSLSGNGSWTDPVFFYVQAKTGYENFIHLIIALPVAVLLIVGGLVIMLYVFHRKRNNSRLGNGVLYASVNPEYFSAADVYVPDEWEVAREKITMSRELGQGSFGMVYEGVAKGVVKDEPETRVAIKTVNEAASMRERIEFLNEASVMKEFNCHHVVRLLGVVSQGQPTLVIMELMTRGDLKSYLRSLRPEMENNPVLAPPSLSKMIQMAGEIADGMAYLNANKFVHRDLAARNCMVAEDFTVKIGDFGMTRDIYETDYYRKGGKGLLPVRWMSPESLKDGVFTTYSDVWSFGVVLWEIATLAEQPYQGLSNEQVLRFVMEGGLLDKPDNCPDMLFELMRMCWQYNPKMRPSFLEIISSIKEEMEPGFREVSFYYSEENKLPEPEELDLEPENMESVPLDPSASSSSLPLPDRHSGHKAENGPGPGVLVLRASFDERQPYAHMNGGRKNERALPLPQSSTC
UniProt P08069, whole entry, looked up, stated change not applied: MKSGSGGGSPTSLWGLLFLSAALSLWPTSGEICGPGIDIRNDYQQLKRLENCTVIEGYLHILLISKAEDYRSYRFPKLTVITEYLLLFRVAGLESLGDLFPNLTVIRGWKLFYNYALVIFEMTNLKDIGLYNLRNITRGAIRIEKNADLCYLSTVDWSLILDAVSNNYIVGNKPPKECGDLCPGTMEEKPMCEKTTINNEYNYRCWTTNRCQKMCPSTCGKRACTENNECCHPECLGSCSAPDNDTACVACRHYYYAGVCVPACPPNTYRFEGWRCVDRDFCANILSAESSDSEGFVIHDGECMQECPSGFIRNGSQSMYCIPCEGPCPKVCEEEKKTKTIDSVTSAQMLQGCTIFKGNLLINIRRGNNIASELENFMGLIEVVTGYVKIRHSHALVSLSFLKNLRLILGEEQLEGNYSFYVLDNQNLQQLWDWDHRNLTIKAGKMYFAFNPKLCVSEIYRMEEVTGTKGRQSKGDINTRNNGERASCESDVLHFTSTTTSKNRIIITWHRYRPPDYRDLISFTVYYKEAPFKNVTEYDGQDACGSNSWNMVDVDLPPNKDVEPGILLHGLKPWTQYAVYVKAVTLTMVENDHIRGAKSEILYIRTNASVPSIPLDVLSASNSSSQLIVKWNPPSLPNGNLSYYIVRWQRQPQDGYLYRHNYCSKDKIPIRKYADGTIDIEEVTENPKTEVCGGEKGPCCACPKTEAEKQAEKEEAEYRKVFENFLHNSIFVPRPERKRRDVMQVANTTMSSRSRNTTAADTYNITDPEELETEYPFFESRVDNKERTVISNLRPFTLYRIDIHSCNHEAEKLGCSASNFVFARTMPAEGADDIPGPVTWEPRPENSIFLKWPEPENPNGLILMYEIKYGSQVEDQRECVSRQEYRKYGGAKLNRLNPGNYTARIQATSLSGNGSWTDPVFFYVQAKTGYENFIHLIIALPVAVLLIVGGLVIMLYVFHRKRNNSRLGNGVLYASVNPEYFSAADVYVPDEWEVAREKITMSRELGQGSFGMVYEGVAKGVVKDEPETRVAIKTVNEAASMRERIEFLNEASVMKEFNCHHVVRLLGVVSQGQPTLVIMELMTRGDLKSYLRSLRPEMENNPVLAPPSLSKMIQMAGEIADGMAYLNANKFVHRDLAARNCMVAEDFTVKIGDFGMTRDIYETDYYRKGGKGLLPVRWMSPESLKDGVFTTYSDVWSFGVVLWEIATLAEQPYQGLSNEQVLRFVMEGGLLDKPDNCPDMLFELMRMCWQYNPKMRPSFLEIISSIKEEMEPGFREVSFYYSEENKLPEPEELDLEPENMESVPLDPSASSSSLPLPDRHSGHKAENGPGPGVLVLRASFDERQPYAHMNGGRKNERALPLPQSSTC
UniProt P29376, 17-864: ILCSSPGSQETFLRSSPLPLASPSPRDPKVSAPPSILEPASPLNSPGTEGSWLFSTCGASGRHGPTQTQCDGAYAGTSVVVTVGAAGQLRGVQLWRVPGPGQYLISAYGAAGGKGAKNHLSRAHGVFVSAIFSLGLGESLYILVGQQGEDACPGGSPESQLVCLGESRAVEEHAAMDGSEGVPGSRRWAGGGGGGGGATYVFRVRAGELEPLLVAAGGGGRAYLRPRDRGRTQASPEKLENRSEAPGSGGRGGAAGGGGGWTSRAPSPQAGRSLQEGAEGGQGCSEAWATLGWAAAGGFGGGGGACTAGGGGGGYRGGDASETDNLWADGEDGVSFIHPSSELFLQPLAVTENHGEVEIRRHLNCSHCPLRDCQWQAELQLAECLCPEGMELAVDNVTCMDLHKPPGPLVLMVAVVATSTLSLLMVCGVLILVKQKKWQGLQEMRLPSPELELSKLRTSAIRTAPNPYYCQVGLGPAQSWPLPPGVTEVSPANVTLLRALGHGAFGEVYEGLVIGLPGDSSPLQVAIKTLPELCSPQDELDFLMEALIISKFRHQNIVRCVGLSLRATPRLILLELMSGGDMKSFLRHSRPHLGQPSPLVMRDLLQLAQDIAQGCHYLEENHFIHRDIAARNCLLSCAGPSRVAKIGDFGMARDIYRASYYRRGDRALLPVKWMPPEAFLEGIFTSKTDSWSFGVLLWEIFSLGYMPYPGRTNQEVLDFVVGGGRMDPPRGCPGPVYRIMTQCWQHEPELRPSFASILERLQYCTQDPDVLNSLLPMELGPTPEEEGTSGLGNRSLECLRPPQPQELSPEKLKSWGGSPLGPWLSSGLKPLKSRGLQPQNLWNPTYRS

Tests used:
[1] = molecular target: Flag-tagged IGF-1R (insulin-like growth factor 1 receptor), wild type (UniProt P08069); experiment: co-IP
[2] = molecular target: Flag-tagged IGF-1R-K1003R, kinase inactive (KR) variant (UniProt P08069); experiment: co-IP

binding [1] | binding [2] | Substance
binds |  | LTK-GFP (leukocyte tyrosine kinase, GFP-tagged) (from UniProt P29376 17-864) (receptor)
binds | binds | LTK-WT-HA (HA-tagged wild-type LTK) (from UniProt P29376 17-864) (receptor)
